We go through 3 molecules from US20160228502A1.

Amino acid sequences for entries named in this document (tags omitted).
UniProt P11716: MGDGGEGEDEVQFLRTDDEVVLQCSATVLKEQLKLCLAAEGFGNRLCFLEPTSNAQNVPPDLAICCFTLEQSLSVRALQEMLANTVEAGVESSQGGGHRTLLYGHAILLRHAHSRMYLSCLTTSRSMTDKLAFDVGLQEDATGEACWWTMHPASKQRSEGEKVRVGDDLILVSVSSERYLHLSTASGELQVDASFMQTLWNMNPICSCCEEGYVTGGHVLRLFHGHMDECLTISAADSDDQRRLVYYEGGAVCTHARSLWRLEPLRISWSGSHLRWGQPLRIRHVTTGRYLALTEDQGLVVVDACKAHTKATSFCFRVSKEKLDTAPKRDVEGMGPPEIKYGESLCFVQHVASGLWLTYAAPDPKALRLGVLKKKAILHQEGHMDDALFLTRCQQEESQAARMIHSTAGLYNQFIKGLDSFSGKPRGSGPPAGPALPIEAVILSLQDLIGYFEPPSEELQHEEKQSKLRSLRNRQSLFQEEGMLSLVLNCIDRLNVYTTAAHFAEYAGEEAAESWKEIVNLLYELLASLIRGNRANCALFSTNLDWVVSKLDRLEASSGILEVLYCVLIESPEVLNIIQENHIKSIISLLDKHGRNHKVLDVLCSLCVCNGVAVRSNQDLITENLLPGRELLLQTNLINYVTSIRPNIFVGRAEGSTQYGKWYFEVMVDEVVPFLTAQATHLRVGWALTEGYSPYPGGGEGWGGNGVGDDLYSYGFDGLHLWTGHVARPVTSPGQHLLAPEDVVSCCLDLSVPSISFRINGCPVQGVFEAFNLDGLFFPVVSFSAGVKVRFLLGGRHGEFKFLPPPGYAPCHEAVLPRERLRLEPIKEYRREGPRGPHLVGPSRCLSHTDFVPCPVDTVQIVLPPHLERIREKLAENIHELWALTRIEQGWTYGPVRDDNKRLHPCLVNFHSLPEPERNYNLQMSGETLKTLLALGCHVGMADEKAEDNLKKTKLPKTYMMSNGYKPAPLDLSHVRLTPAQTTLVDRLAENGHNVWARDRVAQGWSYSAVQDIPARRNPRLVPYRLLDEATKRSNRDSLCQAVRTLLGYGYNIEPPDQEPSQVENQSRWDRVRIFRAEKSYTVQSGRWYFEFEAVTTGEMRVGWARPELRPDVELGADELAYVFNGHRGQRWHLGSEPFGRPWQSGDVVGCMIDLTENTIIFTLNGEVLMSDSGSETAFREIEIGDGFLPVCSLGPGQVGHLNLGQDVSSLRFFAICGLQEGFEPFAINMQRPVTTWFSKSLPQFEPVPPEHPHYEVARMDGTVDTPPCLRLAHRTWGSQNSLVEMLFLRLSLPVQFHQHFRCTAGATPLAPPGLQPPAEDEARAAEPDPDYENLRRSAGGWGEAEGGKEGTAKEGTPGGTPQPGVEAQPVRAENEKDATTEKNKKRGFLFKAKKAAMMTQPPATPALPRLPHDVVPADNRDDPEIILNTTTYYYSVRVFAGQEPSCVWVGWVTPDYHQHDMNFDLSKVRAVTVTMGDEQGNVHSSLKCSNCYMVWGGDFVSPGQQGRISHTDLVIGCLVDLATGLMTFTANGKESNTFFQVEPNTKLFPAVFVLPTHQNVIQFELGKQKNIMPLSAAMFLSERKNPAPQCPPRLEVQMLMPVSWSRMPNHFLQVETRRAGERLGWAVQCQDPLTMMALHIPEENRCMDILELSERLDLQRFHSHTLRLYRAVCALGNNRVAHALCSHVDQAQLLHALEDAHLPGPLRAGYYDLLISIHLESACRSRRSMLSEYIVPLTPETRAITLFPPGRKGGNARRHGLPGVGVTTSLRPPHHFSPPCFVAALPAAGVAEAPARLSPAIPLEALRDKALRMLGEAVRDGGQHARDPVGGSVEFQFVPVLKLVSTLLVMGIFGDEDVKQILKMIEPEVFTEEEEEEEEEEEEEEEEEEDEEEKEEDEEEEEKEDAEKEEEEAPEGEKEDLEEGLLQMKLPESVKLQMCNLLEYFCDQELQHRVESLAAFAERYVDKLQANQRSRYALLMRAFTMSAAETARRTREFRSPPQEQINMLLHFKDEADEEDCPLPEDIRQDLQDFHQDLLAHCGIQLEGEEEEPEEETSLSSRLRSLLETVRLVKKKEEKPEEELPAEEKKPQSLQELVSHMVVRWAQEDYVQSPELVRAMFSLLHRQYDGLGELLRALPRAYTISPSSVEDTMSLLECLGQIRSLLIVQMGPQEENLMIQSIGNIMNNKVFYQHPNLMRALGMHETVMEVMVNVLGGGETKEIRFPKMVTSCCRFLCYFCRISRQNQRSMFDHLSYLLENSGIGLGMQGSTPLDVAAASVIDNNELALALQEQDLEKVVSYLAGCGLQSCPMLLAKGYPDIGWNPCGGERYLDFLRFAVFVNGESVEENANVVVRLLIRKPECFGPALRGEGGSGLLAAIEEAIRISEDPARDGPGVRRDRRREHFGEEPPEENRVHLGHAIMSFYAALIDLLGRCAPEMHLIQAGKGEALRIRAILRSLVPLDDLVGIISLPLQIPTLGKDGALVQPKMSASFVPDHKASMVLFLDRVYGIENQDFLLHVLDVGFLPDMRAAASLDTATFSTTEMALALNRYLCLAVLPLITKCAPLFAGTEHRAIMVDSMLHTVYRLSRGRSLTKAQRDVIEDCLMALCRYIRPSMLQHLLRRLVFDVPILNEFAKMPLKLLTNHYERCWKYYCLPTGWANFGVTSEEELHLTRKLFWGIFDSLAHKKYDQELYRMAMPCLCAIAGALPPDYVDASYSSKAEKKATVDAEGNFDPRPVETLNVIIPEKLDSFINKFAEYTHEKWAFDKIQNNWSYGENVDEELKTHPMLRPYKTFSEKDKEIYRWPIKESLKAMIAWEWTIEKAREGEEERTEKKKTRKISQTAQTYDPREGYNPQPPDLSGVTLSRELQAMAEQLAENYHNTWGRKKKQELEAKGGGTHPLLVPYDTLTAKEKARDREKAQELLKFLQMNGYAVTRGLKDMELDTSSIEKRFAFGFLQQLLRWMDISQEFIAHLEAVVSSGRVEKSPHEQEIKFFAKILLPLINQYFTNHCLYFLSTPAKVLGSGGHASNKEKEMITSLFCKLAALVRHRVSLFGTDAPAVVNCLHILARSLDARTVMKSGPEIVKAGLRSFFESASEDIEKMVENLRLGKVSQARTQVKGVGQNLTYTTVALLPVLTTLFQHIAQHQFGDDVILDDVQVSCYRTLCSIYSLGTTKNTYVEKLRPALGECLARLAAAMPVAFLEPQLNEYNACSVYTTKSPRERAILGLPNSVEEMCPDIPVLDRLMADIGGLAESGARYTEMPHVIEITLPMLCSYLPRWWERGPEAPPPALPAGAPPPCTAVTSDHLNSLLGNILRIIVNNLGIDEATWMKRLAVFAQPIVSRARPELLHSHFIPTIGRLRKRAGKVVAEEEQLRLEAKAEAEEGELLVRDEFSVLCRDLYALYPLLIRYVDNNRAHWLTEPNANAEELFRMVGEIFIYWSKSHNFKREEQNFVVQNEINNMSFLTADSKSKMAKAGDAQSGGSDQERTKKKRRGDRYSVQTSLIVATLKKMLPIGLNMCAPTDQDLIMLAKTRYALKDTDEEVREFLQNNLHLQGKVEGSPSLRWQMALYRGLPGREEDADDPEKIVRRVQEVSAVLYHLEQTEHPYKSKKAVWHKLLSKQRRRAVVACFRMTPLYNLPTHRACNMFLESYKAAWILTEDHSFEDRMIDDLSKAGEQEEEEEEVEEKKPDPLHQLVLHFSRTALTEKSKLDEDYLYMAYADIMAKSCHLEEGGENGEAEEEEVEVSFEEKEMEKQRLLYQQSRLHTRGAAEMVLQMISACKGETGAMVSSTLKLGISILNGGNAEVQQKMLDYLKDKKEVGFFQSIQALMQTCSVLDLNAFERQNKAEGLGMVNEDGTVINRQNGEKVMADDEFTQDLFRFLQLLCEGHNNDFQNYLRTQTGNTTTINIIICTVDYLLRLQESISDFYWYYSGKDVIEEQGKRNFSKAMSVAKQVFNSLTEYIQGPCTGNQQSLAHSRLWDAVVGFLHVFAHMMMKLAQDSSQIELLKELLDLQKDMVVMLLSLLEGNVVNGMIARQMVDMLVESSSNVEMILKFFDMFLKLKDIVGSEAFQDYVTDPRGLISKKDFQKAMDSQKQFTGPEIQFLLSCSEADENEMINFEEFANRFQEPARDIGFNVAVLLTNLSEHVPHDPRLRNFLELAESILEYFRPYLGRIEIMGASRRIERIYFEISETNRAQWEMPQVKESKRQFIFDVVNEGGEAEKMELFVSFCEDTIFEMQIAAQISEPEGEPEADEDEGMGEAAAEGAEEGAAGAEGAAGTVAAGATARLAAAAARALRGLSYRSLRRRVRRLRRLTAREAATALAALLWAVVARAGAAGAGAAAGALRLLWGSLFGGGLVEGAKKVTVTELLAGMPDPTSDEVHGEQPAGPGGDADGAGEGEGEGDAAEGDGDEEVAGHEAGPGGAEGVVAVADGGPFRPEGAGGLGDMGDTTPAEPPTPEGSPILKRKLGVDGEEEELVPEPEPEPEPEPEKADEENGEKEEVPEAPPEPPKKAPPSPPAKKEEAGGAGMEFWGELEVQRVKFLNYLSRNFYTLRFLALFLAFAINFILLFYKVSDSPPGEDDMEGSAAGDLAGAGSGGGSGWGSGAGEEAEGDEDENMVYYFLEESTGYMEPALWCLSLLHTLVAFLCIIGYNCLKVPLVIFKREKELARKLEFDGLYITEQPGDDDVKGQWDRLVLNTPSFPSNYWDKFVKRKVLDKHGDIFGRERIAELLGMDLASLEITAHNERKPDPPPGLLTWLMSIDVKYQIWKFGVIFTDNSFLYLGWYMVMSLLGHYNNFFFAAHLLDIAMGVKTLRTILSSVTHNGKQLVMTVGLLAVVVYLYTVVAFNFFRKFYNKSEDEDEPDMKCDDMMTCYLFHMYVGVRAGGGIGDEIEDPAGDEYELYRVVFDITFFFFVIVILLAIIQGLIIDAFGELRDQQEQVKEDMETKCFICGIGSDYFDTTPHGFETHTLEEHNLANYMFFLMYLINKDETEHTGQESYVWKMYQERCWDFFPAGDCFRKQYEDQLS
UniProt P04191: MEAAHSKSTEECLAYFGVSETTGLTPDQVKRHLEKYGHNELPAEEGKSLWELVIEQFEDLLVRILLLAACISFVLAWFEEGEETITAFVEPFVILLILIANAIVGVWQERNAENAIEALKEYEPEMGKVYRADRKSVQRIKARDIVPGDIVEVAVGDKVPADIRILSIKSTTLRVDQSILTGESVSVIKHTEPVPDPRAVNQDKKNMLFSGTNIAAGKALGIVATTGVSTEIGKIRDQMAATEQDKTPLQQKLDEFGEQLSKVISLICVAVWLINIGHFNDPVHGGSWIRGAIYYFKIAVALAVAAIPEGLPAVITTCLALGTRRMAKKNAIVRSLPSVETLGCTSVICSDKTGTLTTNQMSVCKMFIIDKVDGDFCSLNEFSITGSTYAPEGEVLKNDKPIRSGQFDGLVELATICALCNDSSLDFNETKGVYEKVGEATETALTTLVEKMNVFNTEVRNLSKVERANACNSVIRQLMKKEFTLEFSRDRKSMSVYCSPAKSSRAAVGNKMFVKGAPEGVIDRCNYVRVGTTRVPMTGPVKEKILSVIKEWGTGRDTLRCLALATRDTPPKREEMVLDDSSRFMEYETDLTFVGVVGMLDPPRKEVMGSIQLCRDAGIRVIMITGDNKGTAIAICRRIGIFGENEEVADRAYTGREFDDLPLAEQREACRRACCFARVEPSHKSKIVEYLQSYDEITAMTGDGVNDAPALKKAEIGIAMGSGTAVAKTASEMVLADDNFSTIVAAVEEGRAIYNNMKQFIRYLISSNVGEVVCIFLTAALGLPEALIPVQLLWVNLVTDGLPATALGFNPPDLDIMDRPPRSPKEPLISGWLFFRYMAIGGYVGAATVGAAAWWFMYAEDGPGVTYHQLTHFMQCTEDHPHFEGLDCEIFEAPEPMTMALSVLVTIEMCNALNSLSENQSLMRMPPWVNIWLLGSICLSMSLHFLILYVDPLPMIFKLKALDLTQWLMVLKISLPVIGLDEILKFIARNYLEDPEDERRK

The target of experiment [1] is Ryanodine receptor 1 (RyR1), native, rabbit skeletal muscle SR vesicles (rabbit) (UniProt P11716). Nature of the experiment: coIP with antibody to JPH1 from rabbit SR vesicles.
For experiment [2] the target is unchanged. Nature of the experiment: coIP with antibodies to JPH1 from rabbit SR vesicles.
Another experiment concerns the target SERCA1-CFP (rabbit) (UniProt P04191). Nature of the experiment: AFRET in COS7 cells.
In experiment [3] the target is sarco(endo)plasmic reticulum Ca^2+-ATPase 1 (SERCA1) (rabbit) (UniProt P04191). Nature of the experiment: coIP with antibodies to SERCA1 from COS7 extracts.
Experiment [4] shares this target. Nature of the experiment: coIP with antibodies to SERCA1 from COS7 extracts, titration of sAnk1-FLAG.

Results are given in words; binding and its absence hold for the method and conditions named. For some assays here: In cells and extracts the contact can be indirect. Some results given as binding are weak or reduced against the parent protein; the word gives no strength. For some assays here: Sequences can lack the tags named with a protein.

B1: junctophilin-1 (JPH1), native, rabbit skeletal muscle SR vesicles (protein, UniProt Q9GKY8 1-662, looked up)
chain: MTGGRFDFDDGGTYCGGWEEGKAHGHGICTGPKGQGEYSGSWSHGFEVVGGYTWPSGNTYQGYWAQGKRHGLGVETKGKWMYRGEWSHGFKGRYGVRQSLCTPARYEGTWSNGLQDGYGVETYGDGGTYQGQWAGGMRHGYGVRQSVPYGMATVIRSPLRTSLASLRSEQSNGSVLHDAAAAADTPTGTRGGFVLNFHADAELAGKKKGGLFRRGSLLGSMKLRKSESKSSISSKRSSVRSDAAMSRISSSDANSTISFGDVDCDFCPVEDHVDATTTETYMGEWKNDKRNGFGISERSNGMKYEGEWANNKRHGYGCTVFPDGSKEEGKYKNNILVRGIRKQLIPIRNTKTREKVDRAIEGAQRAAAMARTKVEIANSRTAHARAKADAADQAALAARQECDIARAVARELSPDFYQPGPDYIKQRLQEGVDAKENPEEKVPAKPPTPKESPHFYRKGTTPPGSPEASPKYSRSPQPSPPKPAKKQNPSSGARLNQDKRGVAEEQVTAIVNKPLTSKAPTKEVGAAVSQSKYSGRHHVPNPSNGELHSQYHGYYVKLHAPQHPPVDAEDDDRSSPSSSALVHKPSPNKWSPPKSVTKPVAKESKAEPKAKKSELAIPKNPASNDSCPSMEREANSGPNSVMIVLVMLLNIGLAILFVHFLT
Consider B1, for which the binding result in experiment [1] and in experiment [2] was “binds” in each case.

B2: SLN-YFP (peptide, rabbit, UniProt P42532 1-31, looked up, not shown: large carriers)
chain: MERSTRELCLNFTVVLITVILIWLLVRSYQY
B2: the binding entry with SERCA1-CFP (rabbit) is “binds”.

B3: N-terminal FLAG-tagged sarcolipin (NF-SLN) (peptide, rabbit, UniProt P42532 1-31, looked up, not shown: small tags and cut ends)
chain: B2 chain
B3: the binding result in experiment [3] and in experiment [4] was “binds” throughout.
